In publication PMC5744401:
No constants are given. Whether binding was seen depends on the method and setting. For part of these data: Binding seen in cells or lysates may run through a third protein. Some binding calls cover weakened binding; strength is not graded here. Where a sequence is shown, tags or fusion partners need not be part of it. Blank lines part the entries; values can stand above or below the binder they belong to.

Tests used:
[1] = biological target: T1, GST-AvaR2 (Streptomyces avermitilis) (UniProt Q82H44); test: pull-down; His6- and GST-tagged proteins co-expressed in E. coli BL21 (DE3); lysate incubated with glutathione-sepharose beads overnight at 4°C, washed three times with PBS buffer; Western blotting with anti-GST or anti-His antibody
T1 sequence: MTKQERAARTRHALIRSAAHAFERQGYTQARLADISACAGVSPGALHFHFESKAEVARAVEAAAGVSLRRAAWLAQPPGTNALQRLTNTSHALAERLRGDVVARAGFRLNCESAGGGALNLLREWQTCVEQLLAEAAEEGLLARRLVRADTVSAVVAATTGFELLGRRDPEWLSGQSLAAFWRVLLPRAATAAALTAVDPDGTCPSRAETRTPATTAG

[2] = biological target: T1, GST-AvaR2 (Streptomyces avermitilis); test: native gel or EMSA; competitive EMSA: 0.3 nM labeled DNA probe aveRp2 incubated with His6-AvaR1 and GST-AvaR2 together at varied concentrations; a new complex of intermediate mobility is read as heterodimer on DNA; both purified

binding [1]: binds
B1: His6-AvaR2 (protein, UniProt Q82H44 1-218)
chain: T1 sequence

binding [1]: binds | binding [2]: binds
B2: His6-AvaR1 (protein, UniProt Q82H41 1-234)
chain: MARQERAIRTRQTILVAAAEVFDEVGYEAATISDVLKRSGVTKGALYFHFTSKQELAQAVLAEQVASLPRVPEQELKLQQSLDEALLLAHLLREGTGDPIVQGSVRLTVDQGSPRDHLNRRVPMQAWTEHTQSLFEEARAKGEILPHADVEALAKLFVGAFTGVQVLSRIMTGRADLAERVADLYRHLMPSFAMPGILVRLDFSPERGSRVYEAAMKQRESAAASTTDAARTLE
